Experimental data reported in PubChem BioAssay AID485353 (National Center for Advancing Translational Sciences (NCATS), 2010).
The campaign covered roughly 330,000 compounds. About 610 (0.18%) were called active. Inconclusive results, whose numbers are uncertain, are shown with a selection of clear calls. The call rests on the fitted dose curve. Potencies beside an inconclusive call are fits to weak or partial responses and may not hold up.
Potency means the concentration at half of the fitted maximal effect.

Assay: qHTS of Yeast-based Assay for SARS-CoV PLP; further: nearly all actives have a fitted effect of over 55% in size
Details: S. cerevisiae expressing SARS-CoV PLpro; Potency: growth rescue; series mostly up to 32.9 µM
For `COc1ccc(-n2c(=S)[nH]c3cc(C(=O)NCCCN4CCCC4=O)ccc3c2=O)cc1OC`, the Potency was “inactive”. In the case of `O=C(CCCN1C(=O)c2ccccc2C1=O)N1CCCCC1`, the Potency is reported as “inactive”. In the case of `Cc1ccccc1NCC(=O)N/N=C/c1c(C)c(C(=O)c2ccc(Cl)cc2)n2ccccc12`, the Potency is reported as inconclusive: 20 µM [activator, single point]. For `Cc1ccc(-c2nnn(CC(=O)N(Cc3cccs3)C(C(=O)NC(C)(C)C)c3ccco3)n2)o1` (stereo not drawn), the Potency was inconclusive: 11.2 µM [activator, single point]. With `O=C(N/N=C/c1ccc(-n2ccnc2)cc1)c1cccs1` the Potency was inconclusive: 2.82 µM [activator, single point]. With `COCCNC(=S)N/N=C(\C)c1ccc2cc(OC)ccc2c1` the Potency was active: 8.91 µM. For `O=C(NCCCN1CCOCC1)C1COc2ccccc2O1` (stereo not drawn), the Potency was inconclusive: 5.01 µM [activator, partial curve]. With `CC(=O)Nc1ccc(N(CC(=O)NC2CCCC2)C(=O)CCC(=O)Nc2cc(C)on2)cc1` the Potency was “inactive”. For `C[C@H]1CCCC(=O)CCCCCc2cc(O)cc(O)c2C(=O)O1`, the Potency was “inactive”. For `Cc1ccc(N2CN=C(c3ccccc3)NC2=S)cc1`, the Potency was inconclusive: 5.62 µM [activator, partial curve]. For `O=C(NNC(=S)NC1CCCCC1)c1cccs1`, the Potency was inconclusive: 3.16 µM [activator, partial curve]. With `CCCc1nnc(NC(=O)c2ccncc2)s1` the Potency was inconclusive: 3.16 µM [activator, single point]. In the case of `Cc1ccc(S(=O)(=O)c2cc3c(=O)n4ccccc4nc3n(C3CCCC3)c2=N)cc1`, the Potency is reported as “inactive”. In the case of `COc1cc(C(=O)NC(=S)Nc2ccc3c(c2)OCO3)cc(OC)c1OC`, the Potency is reported as “inactive”. In the case of `CC(=O)C1=C(C)OC(N)=C(C#N)C1c1cc([N+](=O)[O-])ccc1Cl` (stereo not drawn), the Potency is reported as “inactive”. With `FC(F)(F)c1nc(NCc2ccccc2)c2nnn(Cc3ccccc3)c2n1` the Potency was inconclusive: 11.2 µM [activator, partial curve]. In the case of `N#Cc1c(N2CCN(C(=O)c3ccccc3Cl)CC2)nc(-c2ccccc2)c2c1CCCC2`, the Potency is reported as active: 3.55 µM. With `Cc1cc(/C=N/NC(N)=S)c(C)n1-c1ccc(Br)cc1` the Potency was inconclusive: 14.1 µM [activator, partial curve]. In the case of `CC(C)COc1ccc(-c2nn(-c3ccccc3)cc2C(=O)Nc2nccs2)cc1`, the Potency is reported as inconclusive: 3.55 µM [activator, single point]. For `CC(C)CSc1nc2c(c(=O)[nH]c(=O)n2C)n1CC(O)COc1cccc2ccccc12` (stereo not drawn), the Potency was inconclusive: 14.1 µM [activator, partial curve]. In the case of `Cc1ccc(S(=O)(=O)N2CCN(C(=O)Cc3ccc(S(=O)(=O)N4CCOCC4)s3)CC2)cc1`, the Potency is reported as inconclusive: 11.2 µM [activator, single point]. In the case of `O=C(CSc1nc(-c2ccco2)cc(C(F)(F)F)n1)Nc1ccc2c(c1)OCO2`, the Potency is reported as inconclusive: 3.98 µM [activator, single point]. In the case of `Cc1ccc2c(c1)C1CN(C)CCC1N2C(=O)Cn1cnc2c1c(=O)n(C)c(=O)n2C` (stereo not drawn), the Potency is reported as inconclusive: 15.8 µM [activator, single point]. In the case of `CCCS(=O)(=O)N1CCN(Cc2ccc([N+](=O)[O-])cc2)CC1`, the Potency is reported as inconclusive: 2 µM [activator, full curve, poor fit]. In the case of `Cc1cnc(=O)[nH]c1SCc1cccc(C(F)(F)F)c1`, the Potency is reported as inconclusive: 7.08 µM [activator, partial curve]. In the case of `Nc1c(/C=C2\C=Nc3ccccc32)c(=O)nc2sc(CC(=O)N3CCOCC3)nn12`, the Potency is reported as “inactive”. With `O=C(c1cc(COc2ccc(F)cc2Cl)on1)N1CC[C@@H]2CCCC[C@H]2C1` the Potency was inconclusive: 12.6 µM [activator, single point]. With `Cc1oc2cc(OCc3cnn(-c4ccccc4)c3)ccc2c(=O)c1Oc1ccccc1F` the Potency was active: 2.51 µM. For `CC(C)(C)NC(=O)CN(C(=O)C(=O)Nc1ccc2c(c1)OCCO2)C(C)(C)C`, the Potency was “inactive”. For `COc1ccc(CCNC(=O)c2ccc(=O)[nH]n2)cc1OC`, the Potency was inconclusive: 10 µM [activator, single point]. With `COc1cc(NC(=O)C2CCN(c3cnccn3)CC2)cc(OC)c1OC` the Potency was inconclusive: 11.2 µM [activator, single point]. In the case of `O=C(CCNC(=O)C1CCN(S(=O)(=O)c2ccc(F)cc2)CC1)Nc1nccs1`, the Potency is reported as “inactive”. In the case of `O=C(NC1CCCCC1)N1CCN(c2ccc(Cl)cc2)CC1`, the Potency is reported as “inactive”. With `Cc1ccc(C(NC(=O)C(C)C)c2cc([N+](=O)[O-])c3cccnc3c2O)cc1` (stereo not drawn) the Potency was inconclusive: 4.47 µM [activator, single point]. With `O=C(c1cccc(N2C(=O)C3C4C=CC(C4)C3C2=O)c1)N1CCN(c2ccccc2F)CC1` (stereo not drawn) the Potency was inconclusive: 22.4 µM [activator, single point]. For `O=C1CCC(C(=O)N2CCC(CO)CC2)CN1Cc1ccc(Cl)cc1` (stereo not drawn), the Potency was inconclusive: 3.55 µM [activator, single point]. For `COc1ccccc1N(Cc1cc(=O)[nH]c2ccccc12)C(=O)c1ccc([N+](=O)[O-])cc1`, the Potency was “inactive”. In the case of `CCCOc1ccc(/C=N/NC(=S)Nc2ccccc2[N+](=O)[O-])c(O)c1`, the Potency is reported as active: 10 µM. With `COc1ccc(/C=C/C(=O)NC(=S)NNC(=O)c2c(-c3ccccc3)noc2C)cc1` the Potency was inconclusive: 22.4 µM [activator, single point]. With `COc1ccc(-n2cc(CN(C)CCO)c(-c3cccc(F)c3)n2)cc1` the Potency was “inactive”. For `CC(OC(=O)c1ccc(NC(=O)CC#N)cc1)C(=O)Nc1ccc(Oc2ccccc2)cc1` (stereo not drawn), the Potency was inconclusive: 3.16 µM [activator, single point]. In the case of `CCCOc1ccc2[nH]c(C(=O)N/N=C/c3cc(OC)c(OC)c(OC)c3)cc2c1`, the Potency is reported as “inactive”. In the case of `O=C(CSc1nnnn1-c1ccc(Cl)cc1)Nc1cccnc1Cl`, the Potency is reported as inconclusive: 15.8 µM [activator, partial curve]. For `COc1ccc(COCC(O)CN2CCCCC2)cc1OC` (stereo not drawn), the Potency was inconclusive: 12.6 µM [activator, single point]. For `COc1ccc(C(=O)/C=C\c2ccc(NC(=O)c3cccs3)cc2)cc1`, the Potency was inconclusive: 3.98 µM [activator, single point]. For `CCc1noc(C)c1C(=O)N(CCOC)c1c(N)n(CC(C)C)c(=O)[nH]c1=O`, the Potency was inconclusive: 4.47 µM [activator, single point]. For `COc1c(C)cc(C(=O)C2CCCN(Cc3cccc(O)c3)C2)cc1C` (stereo not drawn), the Potency was inconclusive: 17.8 µM [activator, single point]. In the case of `Cc1cccc2cc(C(c3nnnn3CC3CCCO3)N3CCc4ccccc4C3)c(=O)[nH]c12` (stereo not drawn), the Potency is reported as inconclusive: 20 µM [activator, single point]. With `CCCCOc1ccc(C(=O)NCC(=O)NC2CC2)cc1` the Potency was active: 11.2 µM. In the case of `O=C(c1ccc(COc2ccccc2Br)o1)N1CCN(c2ccccn2)CC1`, the Potency is reported as “inactive”. In the case of `COCC(=O)c1[nH]c2ccccc2c1C`, the Potency is reported as inconclusive: 12.6 µM [activator, partial curve]. For `CC(C)CNC(=S)NC(=O)c1ccc(Cl)cc1`, the Potency was inconclusive: 10 µM [activator, partial curve]. For `Cc1ccc(-c2nnc(SCC(=O)N/N=C/c3ccc(C)s3)n2-c2ccccc2)cc1`, the Potency was inconclusive: 4.47 µM [activator, partial curve]. With `CC(Oc1ccc2c(-c3ccccc3)cc(=O)oc2c1)C(=O)O` (stereo not drawn) the Potency was inconclusive: 12.6 µM [activator, single point]. In the case of `CC(=O)Nc1ccc(S(=O)(=O)N(Cc2cc3ccc(C)cc3[nH]c2=O)CC2CCCO2)cc1` (stereo not drawn), the Potency is reported as inconclusive: 4.47 µM [activator, single point]. With `Cc1ccc(S(=O)(=O)N2CCN(CC(=O)Nc3ccc(N4CCOCC4)cc3)CC2)cc1C` the Potency was inconclusive: 3.55 µM [activator, partial curve]. With `COC(=O)c1ccc(C2C(C(=O)OC(C)C)=C(C)N=C3SCCC(=O)N32)cc1` (stereo not drawn) the Potency was inconclusive: 20 µM [activator, single point]. In the case of `O=C(C1CCN(S(=O)(=O)c2cccs2)CC1)N1CCCC(C(F)(F)F)C1` (stereo not drawn), the Potency is reported as inconclusive: 11.2 µM [activator, partial curve]. For `Cc1ccc(-n2nnnc2SC(C)C(=O)Nc2ccccc2-c2ccccc2)cc1` (stereo not drawn), the Potency was inconclusive: 0.794 µM [activator, full curve, poor fit]. With `COc1cccc(C(=O)NCCSc2ccc(F)cc2)c1` the Potency was “inactive”. For `COC(=O)c1[nH]c2c(c1C)C(=O)CC(c1ccccc1)C2` (stereo not drawn), the Potency was inconclusive: 2.82 µM [activator, single point]. For `COc1cccc(N2C(=O)N(c3ccccc3Cl)C3CS(=O)(=O)CC32)c1` (stereo not drawn), the Potency was inconclusive: 3.98 µM [activator, single point]. For `CCOc1ccccc1C(=O)N/N=C/c1ccoc1`, the Potency was inconclusive: 11.2 µM [activator, single point]. For `Cc1cccc(NC(=O)c2ccccc2NC(=O)C2CCCCC2)c1C`, the Potency was inconclusive: 4.47 µM [activator, single point]. For `CN1C(=O)/C(=C2/C=CC=CN2C)OC1=S`, the Potency was inconclusive: 20 µM [activator, single point]. With `Cc1ccc(Sc2ccc(NC(=O)c3ccc(S(C)(=O)=O)cc3Cl)cc2)cc1` the Potency was inconclusive: 2.82 µM [activator, full curve]. For `CCn1c(SCC(=O)N2CCCC(C)C2)nnc1-c1ccco1` (stereo not drawn), the Potency was “inactive”. In the case of `CCOC(=O)C1CCCN(CC(=O)Nc2c(F)c(F)c(F)c(F)c2F)C1` (stereo not drawn), the Potency is reported as inconclusive: 3.98 µM [activator, single point].
